Reference: patent US20030199423A1
These are yes or no findings as the source states them, for the method shown. Some results given as binding are weak or reduced against the parent protein; the word gives no strength.

Biological target: T1, soluble human ICAM-R (human) (UniProt P32942)
T1 sequence: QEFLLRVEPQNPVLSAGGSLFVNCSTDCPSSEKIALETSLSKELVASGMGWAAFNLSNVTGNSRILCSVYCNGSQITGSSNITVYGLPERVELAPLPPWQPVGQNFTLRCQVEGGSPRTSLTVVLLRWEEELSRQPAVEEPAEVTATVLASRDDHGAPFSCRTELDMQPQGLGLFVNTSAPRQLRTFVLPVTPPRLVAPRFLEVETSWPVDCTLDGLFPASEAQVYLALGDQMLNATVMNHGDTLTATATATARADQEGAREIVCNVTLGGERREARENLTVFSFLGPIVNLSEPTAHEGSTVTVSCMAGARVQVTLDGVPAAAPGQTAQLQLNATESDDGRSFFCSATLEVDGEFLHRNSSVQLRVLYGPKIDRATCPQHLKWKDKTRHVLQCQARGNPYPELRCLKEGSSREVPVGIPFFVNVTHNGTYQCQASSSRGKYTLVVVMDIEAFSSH
Test: ELISA on coated baculovirus soluble ICAM-R

- binding: binds
B1: recombinant ICR-8.1 antibody HuVHV/MuVK (antibody, human IgG4, V domains shown)
VH: QVQLVQSGAEVKKPGASVKVSCKASGYTFTDCIILWVRQAPGQGLEWMGKINPYFGTTTYNLKFKGRVTITVDTSTSTAYMELSSLRSEDTAVYYCARKEAYPDAMDYWGQGTLVTVSS
VL: DAVMTQTPLSLPVSLGDQASISCRSSQSLVHSNGDTYLHWYLQKPGQSPQLLIYKVSNRFSGVPDRFSGSGSGTDFTLKLSRVEAEDLGVYFCSQSTHVPYTFGGGTKLEIK
